Results reported in patent US20120035098A1.

Molecular target: GST-TAT fusion protein (HIV-1 TAT protein expressed as a fusion with GST) (HIV-1)
Experiment: ELISA: GST-Tat adsorbed on the plate, HPBP in solution, detected with anti-HPBP antibodies

B1: Human Phosphate Binding Protein (HPBP) (protein)
chain: DINGGGATLPQKLYLTPDVLTAGFAPYIGVGSGKGKIAFLENKYNQFGTDTTKNVHWAGSDSKLTATELATYAADKEPGWGKLIQVPSVATSVAIPFRKAGANAVDLSVKELCGVFSGRIADWSGITGAGRSGPIQVVYRAESSGTTELFTRFLNAKCTTQPGTFAVTTVFANSYSLGLSPLAGAVAAIGSVGVMAADNDVTTAQGRITYISPDFAAPTLAGLDDATKVARTGKGSSSGGGAEGKSPAAANVSAAISVVPLPAAADRGDPNVWTPVFGAVTGGGVVAYPDSGYPILGFTDLIFSECYANATQTGQVRNFFTKHYGTSANDNAAIQANAFVPLPSNWKAAVRASYLTASNALSIGDSAVCGGKGRPE
Q: With B1 as the binder, how does the binding read?
A: binds

These are yes or no findings as the source states them, for the method shown. A result given as binding can be weak or reduced; the word gives no strength.
